In all, about 52,000 sequences went through this assay and about 210 (0.4%) were called active.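 The calls were made as follows: active = gene whose silencing raises cell survival under the drug, median off-target-corrected z-score across its silencing RNAs 2 or more; inactive = the rest.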 This is one part of the list.

The assay can be described thus: Resistance to Poly (ADP-Ribose) Polymerase inhibitor: Gene Identification via Genome-wide siRNA Screen. Conditions: mouse BRCA2 R2336H ES cells, olaparib, CellTiter-Glo viability; stronger effect = higher value. In short, it runs like this:
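Genome-wide siRNA screen (3 siRNAs/gene, 20 nM) in mouse ES cells carrying hypomorphic BRCA2 R2336H; olaparib 500 nM added 48 h post-transfection, CellTiter-Glo viability 72 h later. Normalized to plate-median negative control; MAD z-scores, gene median, seed-adjusted.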
For orientation: ATP-based viability assays read luminescence as a measure of living cells.
Turning to “GGACCACAUAGCUUUUGAGTT against 2900036G02Rik”, the z-score is inactive: 0.884.

With GGAAGCAGCAAAGAAGUUGTT against Olfr1109, the z-score is inactive: -0.77.

As to GGAAUCUCCACCAUACAGGTT against V1rc17, the z-score was inactive: 0.0391.

GGGUCCUUUGUCACAUUCATT against Psmd7: the z-score was inactive: -1.7.

Regarding “CCCAGGUGUAUUUUACAUATT against D10Wsu102e”, the z-score was inactive: -0.395.

For the sequence GGAGAAACUCUAGAAUUGATT against Mamdc1, the z-score is inactive: 1.13.

As for CCAAAAUGAGGGCAUCUAUTT against Mvp, the z-score was inactive: -0.733.

Regarding CCACUAUGAAUCGUGGUUCTT against Sp6, the z-score is inactive: 0.658.

For GGAGAGAUUUCUUGGUAAATT against Tex261, the z-score is inactive: -0.632.

Turning to “GGCAUGACUAUAACCAUUUTT against 1110004F10Rik”, the z-score is inactive: 1.27.

Turning to GCAAGUGGUGUCGCUGUCATT against Olfr1349, the z-score was inactive: -0.661.

Regarding GUCUUCAGCAGUCUUCAGGTT against Sprr2f, the z-score was inactive: -0.896.

With GGUCCAAUUAACUUCACCGTT against Myl2, the z-score is inactive: -0.915.

In the case of GCGUAUAAGCUCAGUAGACTT against Plekhe1, the z-score is inactive: 0.576.

“GGCCAACUCUACCUGAACATT against 9230002F21Rik”: the z-score was inactive: 0.64.

Consider GGACAAAAUUAGACCUUUGTT against Arf2, for which the z-score was inactive: -2.26.

With “GCUUGAGUAGUGCAGAAACTT against 5430433L24Rik”, the z-score was inactive: -1.47.

For “GGGUCCCGGUUUAAAGCUUTT against 1110001J12Rik”, the z-score was inactive: 1.13.

Regarding “GGCCAUGGUUGAGUUUGCUTT against 1110014D18Rik”, the z-score was inactive: 0.805.

Take GCCAAGAAACAAUACUCAUTT against Olfr1352: the z-score was inactive: 0.625.

For CGAGAGCUAAAAAGAGUAATT against Chd1, the z-score was inactive: -0.923.

As for “CCUGGACCCAUGAAGUCUUTT against 2310047C17Rik”, the z-score was inactive: -1.05.

As to GGGAAAAUCUGAAGUGUAATT against Galnt13, the z-score was inactive: 0.791.

Consider GGCUCAUUUGAUGGAUUUCTT against Elf5, for which the z-score is inactive: -1.03.

For the sequence GGCUCUGUUGAAUGCAACGTT against Slc39a6, the z-score was inactive: -0.317.

With GGGUUCUGGGAACUUUAUATT against Bdkrb1, the z-score was inactive: 0.0368.

As for GGGAUUAAAAGAUGACAUUTT against Dusp12, the z-score is inactive: 0.046.

Consider GGGUUGCUGACUUUAGGAUTT against Lmx1a, for which the z-score is inactive: 0.558.

As to GGAAGUUGAAAUGCUGUCGTT against Clcnka, the z-score was inactive: -1.35.

As for “CGCACUUGACCUAGCAAGUTT against A230083G16Rik”, the z-score is inactive: -0.472.

With “GGCCGGUUAGCUAAUCAGATT against 2810037C14Rik”, the z-score is inactive: 0.0231.

Consider GGUGUUCCUGGUGAAGCAATT against Camk1g, for which the z-score was inactive: -1.58.

As for GCACUGAAAGUCUACGUCCTT against Rara, the z-score is inactive: 0.654.

Consider GGCACUUUUAUUCUUCUCUTT against Zmpste24, for which the z-score was inactive: -0.0471.

For GGCGGAUAUCUUGAAAAACTT against Ntf3, the z-score was inactive: -0.416.

Turning to CCAAGAGCUGAAACAAGAATT against Ankrd12, the z-score was inactive: -0.125.

As for GGUGAUGUUUCUCACUGUCTT against A2m, the z-score was inactive: 1.21.

As for “GCGGCUUAGUCCAUCAGGATT against 2010301N04Rik”, the z-score was inactive: 0.986.

For “GCCAGUUGACCACUAUUGATT against 5730589K01Rik”, the z-score was inactive: -1.49.

On to GGCUAUGGACCGAAAGAUUTT against Dgcr6, for which the z-score was inactive: -1.71.

As for CCUGACAGGUUUAUGUGAATT against Cbl, the z-score is inactive: 0.564.

Regarding “CCCUUGAACAUUCUACUCUTT against 1700012A03Rik”, the z-score is inactive: 0.549.

Regarding GCUGUGUAGCAUUUUAACATT against Ank2, the z-score is inactive: 0.0136.

“GCAAAAAUCGACUAAAGAGTT against B230217C06Rik”: the z-score is inactive: 0.115.

Turning to GGGAUUCGAAGGACAAUAGTT against V1rh20, the z-score is inactive: -0.932.

Consider GGCUUUCAUAAUAUAAGACTT against Kera, for which the z-score is inactive: 0.221.

GGUUAAUUUUCAGAAUGGATT against Canx: the z-score is inactive: -0.168.

Turning to CCGUCAAAAGGGAAUUUCATT against Abca17, the z-score is inactive: -2.1.

For the sequence GGCCAGGCUUUUGACUUUATT against Acy3, the z-score was inactive: -0.837.

GGUGUAACAUCAAAGCAGATT against BC021917: the z-score was inactive: 0.315.

Turning to “CGUGCCUGCUCAAUUAAUUTT against 1700067P10Rik”, the z-score was inactive: 2.13.

For the sequence GGUCUACGCUAUCCUAGUUTT against Grin1, the z-score was inactive: 0.261.

For CGCAGUCCUUGACAUUAAATT against Rab3a, the z-score is inactive: -1.43.

GGUGUUGAGAAGAAAAAUATT against Spz1: the z-score is inactive: 0.167.

As for GGCUACGCCCACAAAAGCUTT against Hist1h1t, the z-score was inactive: -0.11.

For the sequence CCUGCAUGAUUCUUACAUGTT against Mrgprd, the z-score is inactive: 0.129.

As for CCCAAAAAUUGACAAGUCATT against Batf, the z-score is inactive: -0.197.

Take “CGGCUUGGACAGAUUUAUCTT against 1110060F11Rik”: the z-score was inactive: 0.622.

As to CCAUAUCAGGCAUAGCAGUTT against Nthl1, the z-score is inactive: 0.834.

Turning to GGCAAGUUUGCUAUAACCUTT against Jmy, the z-score is inactive: -0.0457.

For CCAUAACCACCUGUCAUUGTT against Mrpl55, the z-score was inactive: 2.14.

For GCCUCCUUUGCUUCAUUUCTT against Fcer1g, the z-score was inactive: -0.0573.

In the case of UUGAACAGUGGAACAAUGATT against Fbxo27, the z-score is inactive: -1.71.

As to GGAGUUGAAGUUUGUGACATT against Acpp, the z-score is active: 2.3.

GGAGCUCUUCCAGUUGUUUTT against Khk: the z-score is inactive: -0.684.

“CGCCAGCAGAACUCAAAUATT against RP23-219P13.3”: the z-score was inactive: 0.432.

Consider GCCUACAAUCGAGACAGUUTT against Sgca, for which the z-score was inactive: -1.75.

Regarding CGACCUGUUUGAAAACACCTT against Cnn1, the z-score was inactive: -0.00306.

As for GCAGUUAUUACCAAUAAUGTT against Plcd, the z-score was inactive: -0.231.

For the sequence GGGAGAGAAGCCAUAUAAATT against Zfp7, the z-score is inactive: 1.14.

As for GGACUUCACCAUCUAUAACTT against Vangl1, the z-score was inactive: -0.147.

Regarding “GGAAGUUGUAGAAGAAACUTT against E430026E19Rik”, the z-score was inactive: -2.86.

In the case of GAAACUGUAACAGUCUAUATT against Spp1, the z-score is inactive: -0.555.

Turning to “GGAGUAAUCAUGCUGGAGCTT against 9930104L06Rik”, the z-score is inactive: 0.406.

In the case of GGAAGGCUUUCAAGAUUCATT against Gsta1, the z-score is inactive: 0.629.

On to “GGGUGGAGAACCAAGUUUUTT against 1810015P03Rik”, for which the z-score is inactive: -0.913.

On to GGAAGAGGUGAAUGAUAAATT against Bmi1, for which the z-score was inactive: 0.872.

Regarding AACCUGGCUCAUAUCCCAUTT against Retnlg, the z-score is inactive: -0.465.

In the case of GGAAGAAGAAGGUGUAACCTT against Defb39, the z-score was inactive: 0.889.

Take “GGACCAUCUCUGAUGAACCTT against 6330505N24Rik”: the z-score is inactive: 0.416.

Take GGUUGUUUAUGCUUUCUCUTT against Grit: the z-score is inactive: 1.02.

As to GGUCUCUUUAGUUAAGAUGTT against Wrn, the z-score is inactive: 0.208.

As to GGUUACUGGUAAAUGGCAGTT against Olfr1505, the z-score is inactive: 0.313.

In the case of GCUAAUGCUGCGUAUUUGCTT against Cops7b, the z-score is inactive: 0.365.

With GCUUUAGCUUUCCCUCGUUTT against Rsl1, the z-score was inactive: -0.606.

On to GCCUUUCUUCAGUGUUCACTT against Gm128, for which the z-score is inactive: -0.428.

As to GGAAUCAAAACAAUCGAAUTT against Nfia, the z-score is inactive: 0.811.

With CGGACUAUUGUGUUGUUAATT against Atoh1, the z-score was inactive: 1.65.

With GCUUGAAGCGAUUAUUUGUTT against Slc25a14, the z-score was inactive: -0.329.

As for GUUCCAGUUUAUCCCUUCUTT against Klra1, the z-score was inactive: -0.86.

Regarding GGAGCUAAGGGAACAAUUATT against Psmc6, the z-score is inactive: -2.12.

Consider “GGAGGUUGUAAUAGCCUUATT against 5133400D11Rik”, for which the z-score was inactive: -1.25.

Turning to GGUGGAUCGCUUUAACCUGTT against Acd, the z-score is inactive: -0.682.

With CCUUCGUCUGGAUUCUUAATT against Stard3, the z-score is inactive: -1.53.

As for CGUGUUCAAAAGAGUUUUCTT against Sos1, the z-score was inactive: 0.407.

Consider GCCUCAGUUUGAAAUUGUUTT against Tbrg1, for which the z-score is inactive: -0.422.

For the sequence GCACUACCGUGAUGAGAUGTT against Dnaic1, the z-score was inactive: -0.692.

Turning to GCCAAAAAAGCUGUCAGUUTT against Nkx2-3, the z-score is inactive: 1.04.

With GUCUCUUGGUAAAUGGCAATT against Hcrt, the z-score was inactive: 1.84.

Consider GCAAAAAGCAGACUAUGAATT against Vezf1, for which the z-score was inactive: 0.326.

Turning to GGUCACUGUUAGUUAUUAATT against Tcerg1l, the z-score is inactive: 0.00562.

Regarding “GCUGAUGGACUCAAGAAAGTT against 2410018M08Rik”, the z-score is inactive: 0.348.

In the case of GGAAGAGCUUUCUGGAAAUTT against Ndrg2, the z-score is inactive: -2.27.

“GGAACACUUGGGAUCCAGATT against B830009D23Rik”: the z-score is inactive: -2.82.

(Values after PubChem BioAssay AID1347423 (Functional Genomics Laboratory (NCATS/FGL), 2020).)
